Test results reported in article PMC12752572.
These are yes or no findings as the source states them, for the method shown. In cells and extracts the contact can be indirect. Some results given as binding are weak or reduced against the parent protein; the word gives no strength.

Protein sequences, listed by entry. Tags and fused reporters are not part of them.
UniProt P38919: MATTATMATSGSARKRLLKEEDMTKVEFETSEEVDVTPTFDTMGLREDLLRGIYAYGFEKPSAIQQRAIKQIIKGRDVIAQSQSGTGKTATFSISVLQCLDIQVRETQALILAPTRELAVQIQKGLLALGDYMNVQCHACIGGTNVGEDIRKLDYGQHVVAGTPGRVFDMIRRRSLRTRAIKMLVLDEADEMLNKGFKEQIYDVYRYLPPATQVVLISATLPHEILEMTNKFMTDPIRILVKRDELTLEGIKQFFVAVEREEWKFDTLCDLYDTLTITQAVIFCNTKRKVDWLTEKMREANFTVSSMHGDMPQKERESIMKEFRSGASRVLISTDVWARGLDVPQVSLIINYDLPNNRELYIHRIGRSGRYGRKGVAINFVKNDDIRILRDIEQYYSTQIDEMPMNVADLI
UniProt P01106: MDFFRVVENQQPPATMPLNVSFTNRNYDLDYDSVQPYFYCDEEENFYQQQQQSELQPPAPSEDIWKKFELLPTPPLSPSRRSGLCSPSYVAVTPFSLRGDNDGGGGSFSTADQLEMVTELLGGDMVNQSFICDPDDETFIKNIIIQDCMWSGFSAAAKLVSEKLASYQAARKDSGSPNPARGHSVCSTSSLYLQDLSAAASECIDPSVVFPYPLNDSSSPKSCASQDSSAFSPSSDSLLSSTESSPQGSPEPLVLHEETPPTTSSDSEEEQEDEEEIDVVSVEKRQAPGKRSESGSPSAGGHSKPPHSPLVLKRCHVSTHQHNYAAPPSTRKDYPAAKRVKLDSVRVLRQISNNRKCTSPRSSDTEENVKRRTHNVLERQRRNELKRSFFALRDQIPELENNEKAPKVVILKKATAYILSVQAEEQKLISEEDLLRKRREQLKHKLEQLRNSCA

How the values were obtained:
[1] = target: heterogeneous nuclear ribonucleoprotein K (HNRNPK) (human (endogenous in OSRC-2 and 786-O)) (UniProt P61978); experiment: co-IP; RCC cells (OSRC-2, 786-O) lysed with protease inhibitors at 4 °C; primary antibody on protein A/G Sepharose beads, overnight; washed with IP buffer; Western blot
[2] = target: EIF4A3 (human (endogenous in OSRC-2 and 786-O)) (UniProt P38919); experiment: as above

binding [1]: binds | binding [2]: binds
Substance: c-MYC (from UniProt P01106 1-454)
